Test [1] deals with T1, Piezo1 pore module fragment, residues 2172-2547 (mouse) (UniProt E2JF22).
T1 sequence: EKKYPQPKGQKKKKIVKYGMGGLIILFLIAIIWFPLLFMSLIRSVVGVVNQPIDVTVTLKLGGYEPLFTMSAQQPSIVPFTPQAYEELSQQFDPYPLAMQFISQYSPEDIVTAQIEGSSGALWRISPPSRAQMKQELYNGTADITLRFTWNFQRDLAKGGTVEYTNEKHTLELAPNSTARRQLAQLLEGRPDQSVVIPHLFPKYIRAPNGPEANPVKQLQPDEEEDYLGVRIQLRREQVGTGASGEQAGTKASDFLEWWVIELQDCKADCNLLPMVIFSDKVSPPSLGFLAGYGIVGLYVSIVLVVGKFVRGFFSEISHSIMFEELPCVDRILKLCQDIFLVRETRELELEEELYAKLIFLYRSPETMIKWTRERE
Kind of test: pull-down.

The chains behind the UniProt entries cited, without tags or fusion partners. Where a name states a change or a piece, a line headed by the entry shows the natural chain unless it says otherwise.
UniProt Q8CD54: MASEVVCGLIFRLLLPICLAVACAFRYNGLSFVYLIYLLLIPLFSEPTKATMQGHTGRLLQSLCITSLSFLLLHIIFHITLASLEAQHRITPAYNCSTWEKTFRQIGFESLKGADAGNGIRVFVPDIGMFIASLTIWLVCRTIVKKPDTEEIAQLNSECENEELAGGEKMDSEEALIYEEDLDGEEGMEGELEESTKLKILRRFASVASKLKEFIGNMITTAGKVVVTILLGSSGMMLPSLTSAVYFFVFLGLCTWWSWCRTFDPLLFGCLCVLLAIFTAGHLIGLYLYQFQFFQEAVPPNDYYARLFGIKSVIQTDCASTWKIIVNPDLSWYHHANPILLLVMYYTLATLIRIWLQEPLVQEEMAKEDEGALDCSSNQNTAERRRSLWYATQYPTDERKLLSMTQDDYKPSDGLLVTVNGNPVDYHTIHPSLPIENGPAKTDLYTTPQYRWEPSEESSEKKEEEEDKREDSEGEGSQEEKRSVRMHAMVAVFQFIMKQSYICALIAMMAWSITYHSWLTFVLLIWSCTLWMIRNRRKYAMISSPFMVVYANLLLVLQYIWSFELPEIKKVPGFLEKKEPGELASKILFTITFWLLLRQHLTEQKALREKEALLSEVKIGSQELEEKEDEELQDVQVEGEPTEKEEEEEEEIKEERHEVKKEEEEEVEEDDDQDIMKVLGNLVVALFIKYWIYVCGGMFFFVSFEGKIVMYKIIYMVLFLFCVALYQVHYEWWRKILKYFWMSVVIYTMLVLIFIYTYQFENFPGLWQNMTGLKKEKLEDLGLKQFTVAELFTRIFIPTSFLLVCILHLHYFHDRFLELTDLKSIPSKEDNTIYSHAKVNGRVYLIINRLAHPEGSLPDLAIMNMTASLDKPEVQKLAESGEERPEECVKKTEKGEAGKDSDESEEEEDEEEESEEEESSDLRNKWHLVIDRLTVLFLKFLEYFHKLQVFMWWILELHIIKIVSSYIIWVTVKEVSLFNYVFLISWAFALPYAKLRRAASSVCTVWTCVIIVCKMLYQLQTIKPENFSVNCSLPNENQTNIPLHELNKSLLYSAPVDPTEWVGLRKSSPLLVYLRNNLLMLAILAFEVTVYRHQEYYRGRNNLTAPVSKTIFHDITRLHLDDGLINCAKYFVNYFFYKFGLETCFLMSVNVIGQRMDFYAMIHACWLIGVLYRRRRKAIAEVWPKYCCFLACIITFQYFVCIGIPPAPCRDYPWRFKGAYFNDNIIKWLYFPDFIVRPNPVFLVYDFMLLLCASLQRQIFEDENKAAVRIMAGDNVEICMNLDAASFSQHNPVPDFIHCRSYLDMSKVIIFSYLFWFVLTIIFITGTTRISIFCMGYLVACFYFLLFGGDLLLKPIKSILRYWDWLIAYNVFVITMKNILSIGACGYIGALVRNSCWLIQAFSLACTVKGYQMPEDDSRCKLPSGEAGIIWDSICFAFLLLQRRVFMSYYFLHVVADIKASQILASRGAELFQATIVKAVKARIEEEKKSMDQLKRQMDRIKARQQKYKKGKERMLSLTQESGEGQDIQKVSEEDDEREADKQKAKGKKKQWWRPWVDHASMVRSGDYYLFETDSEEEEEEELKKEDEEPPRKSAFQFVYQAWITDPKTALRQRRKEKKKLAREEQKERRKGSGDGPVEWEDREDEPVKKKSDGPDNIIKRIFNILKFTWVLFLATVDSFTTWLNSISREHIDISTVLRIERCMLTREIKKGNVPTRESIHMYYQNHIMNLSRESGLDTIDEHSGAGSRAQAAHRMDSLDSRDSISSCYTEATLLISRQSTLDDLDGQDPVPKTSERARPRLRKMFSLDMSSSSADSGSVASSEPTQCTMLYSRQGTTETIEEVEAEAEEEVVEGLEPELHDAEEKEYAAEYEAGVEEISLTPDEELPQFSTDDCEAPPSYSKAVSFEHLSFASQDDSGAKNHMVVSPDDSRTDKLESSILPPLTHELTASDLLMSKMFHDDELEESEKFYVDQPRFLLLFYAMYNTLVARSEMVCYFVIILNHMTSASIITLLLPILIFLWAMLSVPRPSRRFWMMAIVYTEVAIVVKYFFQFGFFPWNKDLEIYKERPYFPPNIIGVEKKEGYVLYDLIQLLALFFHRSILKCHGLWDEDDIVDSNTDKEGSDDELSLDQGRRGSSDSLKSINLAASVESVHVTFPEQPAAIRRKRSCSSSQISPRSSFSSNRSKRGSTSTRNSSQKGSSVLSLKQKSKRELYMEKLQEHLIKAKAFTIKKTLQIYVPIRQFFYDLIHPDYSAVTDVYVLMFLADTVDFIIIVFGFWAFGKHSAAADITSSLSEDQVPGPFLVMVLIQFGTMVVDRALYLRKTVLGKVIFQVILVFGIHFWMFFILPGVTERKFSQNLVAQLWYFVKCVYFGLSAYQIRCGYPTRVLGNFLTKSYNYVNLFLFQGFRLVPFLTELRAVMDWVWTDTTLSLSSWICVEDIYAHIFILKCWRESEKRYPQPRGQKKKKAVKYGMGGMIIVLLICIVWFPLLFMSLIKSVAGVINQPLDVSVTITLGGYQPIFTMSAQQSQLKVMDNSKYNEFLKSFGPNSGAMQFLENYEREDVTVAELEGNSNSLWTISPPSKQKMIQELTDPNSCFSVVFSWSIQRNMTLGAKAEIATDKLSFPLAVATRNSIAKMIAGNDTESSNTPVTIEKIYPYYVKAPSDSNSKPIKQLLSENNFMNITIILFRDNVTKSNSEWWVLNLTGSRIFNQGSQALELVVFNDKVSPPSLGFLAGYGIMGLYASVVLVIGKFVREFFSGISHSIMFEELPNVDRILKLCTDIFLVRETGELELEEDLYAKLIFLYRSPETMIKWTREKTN
UniProt F1PAA9: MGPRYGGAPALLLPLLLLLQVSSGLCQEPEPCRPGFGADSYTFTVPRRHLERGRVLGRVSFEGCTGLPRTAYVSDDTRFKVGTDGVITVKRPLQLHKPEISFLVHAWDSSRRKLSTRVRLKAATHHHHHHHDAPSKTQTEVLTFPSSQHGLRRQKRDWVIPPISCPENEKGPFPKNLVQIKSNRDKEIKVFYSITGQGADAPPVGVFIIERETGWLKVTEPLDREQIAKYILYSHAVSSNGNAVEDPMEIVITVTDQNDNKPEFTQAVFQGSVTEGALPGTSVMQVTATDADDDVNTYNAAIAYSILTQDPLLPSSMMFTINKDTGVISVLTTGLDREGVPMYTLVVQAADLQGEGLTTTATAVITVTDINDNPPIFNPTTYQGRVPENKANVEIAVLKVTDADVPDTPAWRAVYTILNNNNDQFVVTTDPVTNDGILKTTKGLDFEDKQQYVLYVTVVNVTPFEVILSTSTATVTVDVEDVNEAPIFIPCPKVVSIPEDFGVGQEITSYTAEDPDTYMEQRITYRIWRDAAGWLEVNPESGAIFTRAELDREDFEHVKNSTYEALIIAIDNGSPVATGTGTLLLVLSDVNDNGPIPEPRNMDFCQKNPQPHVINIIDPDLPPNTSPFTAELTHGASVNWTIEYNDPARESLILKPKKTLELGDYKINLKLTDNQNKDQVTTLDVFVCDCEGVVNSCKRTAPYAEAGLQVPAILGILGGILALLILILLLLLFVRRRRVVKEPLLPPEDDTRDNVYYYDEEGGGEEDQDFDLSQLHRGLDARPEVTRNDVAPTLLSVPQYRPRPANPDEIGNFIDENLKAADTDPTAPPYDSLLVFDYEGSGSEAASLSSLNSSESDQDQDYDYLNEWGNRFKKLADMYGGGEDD

For test [2], the target named is Piezo1-GST fusion protein (Piezo1-pp-GST-IRES-GFP construct) (mouse) (UniProt E2JF22). Briefly: pull-down.
Test [3] concerns the target Piezo1-ΔCap (mouse) (UniProt E2JF22). Kind of test: pull-down.
The target in test [4] is Piezo2-GST fusion protein (mouse) (UniProt Q8CD54). Kind of test: pull-down.
The target in test [5] is Piezo1-GST fusion protein (Piezo1-pp-GST-IRES-GFP construct) (mouse) (UniProt E2JF22). Briefly: pull-down. This is another data set of the same source.
Test [6] has the same target. Kind of test: pull-down. This is another data set of the same source.
Test [7] has the same target. Briefly: pull-down. This is another data set of the same source.
Test [8] has as its target T2, purified His-tagged Cap fragment protein of Piezo1 (mouse) (UniProt E2JF22).
T2 sequence: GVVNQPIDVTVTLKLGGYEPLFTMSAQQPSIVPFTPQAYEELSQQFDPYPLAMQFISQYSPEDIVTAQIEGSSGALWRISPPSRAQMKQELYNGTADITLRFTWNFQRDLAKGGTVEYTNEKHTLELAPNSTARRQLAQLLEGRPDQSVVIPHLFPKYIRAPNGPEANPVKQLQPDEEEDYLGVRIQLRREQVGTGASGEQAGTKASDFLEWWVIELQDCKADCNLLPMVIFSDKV
Briefly: pull-down.

Test [9] concerns the target GFP-E-cadherin fusion protein (canine) (canine) (UniProt F1PAA9). Briefly: pull-down.
The target of test [10] is Flag-tagged full-length E-cadherin (canine) (UniProt F1PAA9). Briefly: pull-down.
Test [11] has as its target Flag-tagged E-cadherin N-terminal ectodomain (ED), residues 1-711 (canine) (UniProt F1PAA9). Briefly: co-IP.
The target of test [12] is Flag-tagged full-length E-cadherin (canine) (UniProt F1PAA9). Kind of test: co-IP.

Like-named read-outs stand apart in the source and are kept apart here. Results are given in words; binding and its absence hold for the method and conditions named. Binding seen in cells or lysates may run through a third protein. For part of these data: A result given as binding can be weak or reduced; the word gives no strength. For part of these data: Where a sequence is shown, tags or fusion partners need not be part of it.

Consider “GFP-E-cadherin fusion protein (canine) (from UniProt F1PAA9)”, for which the binding entry in [1] is on record as “binds”; in test [2], “binds”; in [3] it was “binds”; in test [4], “binds”; in test [5] it was “no binding (only in the absence of Ca2+)”; in [6], “binds”. Besides, the binding entry in test [7] is given as “binds”.

Turning to “Flag-tagged E-cadherin N-terminal ectodomain (ED), residues 1-711 (from UniProt F1PAA9) (domain or fragment)”, the binding result in [2] and in test [8] was “binds” each time.

As to “Flag-tagged full-length E-cadherin (from UniProt F1PAA9)”, the binding entry in test [2] and in test [8] was “binds” each time.

On to TEKKYPQPKGQKKKK (myristoylated at its N-terminus) [membrane-permeable linker-peptide of mouse Piezo1 (amino acids 2171-2185)], for which the binding result in test [9] is given as “binds”.

B1: purified His-tagged Cap fragment protein of Piezo1 (domain or fragment, UniProt E2JF22 2218-2453)
chain: GVVNQPIDVTVTLKLGGYEPLFTMSAQQPSIVPFTPQAYEELSQQFDPYPLAMQFISQYSPEDIVTAQIEGSSGALWRISPPSRAQMKQELYNGTADITLRFTWNFQRDLAKGGTVEYTNEKHTLELAPNSTARRQLAQLLEGRPDQSVVIPHLFPKYIRAPNGPEANPVKQLQPDEEEDYLGVRIQLRREQVGTGASGEQAGTKASDFLEWWVIELQDCKADCNLLPMVIFSDKV
As to B1, the binding result in test [10], in [11] and in [12] was “binds” throughout.

The values above are taken from article doi:10.1101/2020.05.12.092148.
